{"source": "patent US20250017949A1", "about": "“METHODS AND COMPOSITIONS FOR SUPPRESSING AGING-ASSOCIATED CLONAL HEMATOPOIESIS” (The Jackson Laboratory, priority 2021, published 2025)", "test_system": "Dnmt3a-mutant HSCs", "assay": "Rapamycin-supplemented diet (eRAPA) in transplant recipient mice", "assay_type": "in vivo, mouse", "conditions": "eRAPA diet vs control diet, 24 weeks post-transplant; FIG. 2", "note": "At least one compound was matched to its structure with a doubt left.", "data": [{"smiles": "CO[C@H]1C[C@@H]2CC[C@@H](C)[C@@](O)(O2)C(=O)C(=O)N2CCCC[C@H]2C(=O)O[C@H]([C@H](C)C[C@@H]2CC[C@@H](O)[C@H](OC)C2)CC(=O)[C@H](C)/C=C(\\C)[C@@H](O)[C@@H](OC)C(=O)[C@H](C)C[C@H](C)/C=C/C=C/C=C/1C", "note": "[rapamycin]", "values": [{"measurement": "Frequency of donor-derived Dnmt3a-mutant HSCs in the bone marrow", "result": "expansion of Dnmt3a-mutant HSCs in the bone marrow"}]}]}
